In PubChem BioAssay (NCATS):
The list shows a part of the results. The main result of the screen is listed elsewhere. These columns were measured beside it and carry no call. Compounds called inactive in the main read-out are mostly missing here. Potencies come from curve fits of mixed quality, noted in brackets.

Experiment: S16 Schwann cell PMP22 intronic element beta-lactamase assay (AID 624044)
Conditions: S16 rat Schwann cells, PMP22 element beta-lactamase FRET, 24 h; measured here: 530 nm viability channel
Summary of the method: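 Rat S16 Schwann cells with beta-Lac driven by a PMP22 intronic element, compound-treated 24 h at 37 °C. LiveBLAzer FRET B/G read: 460 nm normalized to potassium clavulanate vs DMSO; 535 nm FRET as viability; concentration-effect curves classified.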

Row | SMILES | AC50
1 | CC(C)(O)c1ccccc1CC[C@H](SCC1(CC(=O)O)CC1)c1cccc(/C=C/c2ccc3ccc(Cl)cc3n2)c1 | 1 µM [falling, full curve]
2 | NC(=O)C1CC2(NC(=O)NC2=O)c2cc(F)ccc2O1 (centres undefined) | 2.82 µM [falling, full curve]
3 | O=C(O)c1ccccc1-c1c2ccc(=O)cc-2oc2cc(O)ccc12 | 15.8 µM [rising, partial curve]
4 | O=C(/C=C/c1ccccc1)OCc1ccccc1 | 0.2 µM [falling, full curve, poor fit]
